Results as given in PubChem BioAssay AID493014 (National Center for Advancing Translational Sciences (NCATS), 2011).
This is one part of the list. These are further read-outs of the screen, such as a control signal, another cell line or another target. No call is given for them. The list favours compounds with an active or inconclusive main result. Words in brackets tell the shape of the fitted curve; partial curves, single points and poor fits give uncertain potencies.

Assay: qHTS Assay to Find Inhibitors of Chronic Active B-Cell Receptor Signaling
Settings: ABC-DLBCL IkBa-CBG/CBR reporter, luminescence ratio (green luciferase fused to IkBa over red control in TMD8 lymphoma cells), 4 h
How it was run: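 Concentration-response series (up to 46 uM) were applied to TMD8 dual-reporter cells for 4 h at 37C with doxycycline. Green/red ratio, after filter-overlap correction, defined %Activity; red signal alone was normalised to basal cells and zero luminescence.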

[1] = measured here: CBR red luminescence, cell number
[2] = measured here: IkBa-CBG green luminescence

Compound | AC50 [1] | AC50 [2]
COc1cccc(C(=O)Oc2c(Br)cc(Br)cc2/C=N/NC(=O)c2cc(C)[nH]n2)c1 | 3.98 µM [falling, full curve, poor fit] | 
O=C(CCCC(=O)N(c1ccc(F)cc1)C(C(=O)NC1CCCC1)c1ccc(O)cc1)Nc1ccccn1 (stereo not given) | 17.8 µM [falling, partial curve] | 
O=C(Nc1cc(S(=O)(=O)N2CCOCC2)ccc1Cl)C1CCC1 | 29.1 µM [falling, single point] | 
c1ccc(-c2cn3cccnc3n2)cc1 | 4.61 µM [rising, full curve, poor fit] | 
COc1ccc(N=Cc2c(O)c3ccccc3n2C(C)=O)cc1 | 0.891 µM [falling, partial curve] | 
COc1ccc(-c2nn(-c3ccccc3)cc2/C=N/N2C(=O)CSC2=S)cc1 | 0.517 µM [rising, full curve, poor fit] | 
CCc1nc(SCC(=O)Nc2cc(OC)ccc2OC)c2c(C)c(C)sc2n1 | 7.94 µM [rising, partial curve, poor fit] | 
CCCCc1nnc(NC(=O)CCS(=O)(=O)c2ccc(C)cc2)s1 | 7.31 µM [falling, partial curve] | 
O=S(=O)(Nc1nc2ccccc2s1)c1ccc(Cl)s1 | 0.82 µM [rising, full curve, poor fit] | 
COc1ccc(CC(=O)Oc2ccccc2C)cc1 | 31.6 µM [rising, single point] | 
Cc1ccc(C2=NN(C(=O)CCl)C(c3ccco3)C2)o1 (stereo not given) | 0.501 µM [falling, full curve, poor fit] | 
COc1cccc(N2C(=O)C(c3ccccc3)=C(c3nc4ccccc4s3)C2NC(C)=O)c1 (stereo not given) | 18.4 µM [falling, single point] | 
CN1/C(=C\C(=O)c2cccnc2)C(C)(C)c2ccccc21 | 5.8 µM [falling, partial curve, poor fit] | 
CCOc1cc(/C=N/NC(=O)CCn2nnc3ccccc32)ccc1O | 14.1 µM [falling, partial curve, poor fit] | 
Cc1ccc(NC(=O)CSc2nc(=O)cc(N)n2CCc2ccccc2)cc1 | 5.62 µM [rising, single point] | 
CC1(C)CC(=O)C(/C=N/n2cnc3ccccc3c2=O)=C(O)C1 | 18.4 µM [rising, single point] | 
COC(=O)Cn1c(=NC(=O)c2ccc(Cl)s2)sc2cc(C)ccc21 | 23.1 µM [falling, partial curve] | 
Cc1ccc(/C=N/N2C(=O)c3ccccc3NC2c2ccc(C)cc2)cc1 (stereo not given) | 4.11 µM [falling, full curve] | 
CC(C)(C)c1ccc(S(=O)(=O)N2CCC(O)(c3ccc(Cl)cc3)CC2)cc1 | 17.8 µM [falling, single point] | 
CCOC(=O)c1c(NC(=O)C(=O)N/N=C/c2ccc(O)c(OC)c2)sc2c1CCCCC2 | 18.4 µM [rising, single point] | 
COc1ccc(/C=N/Nc2cc(C)nc3ccc(Br)cc23)cc1 | 35.5 µM [falling, single point] | 

Three entries from above, ordered by heavy-atom count, low to high.
Compound | AC50 [1] | AC50 [2]
CC1(C)CC(=O)C(/C=N/n2cnc3ccccc3c2=O)=C(O)C1 | 18.4 µM [rising, single point] | 
COc1ccc(-c2nn(-c3ccccc3)cc2/C=N/N2C(=O)CSC2=S)cc1 | 0.517 µM [rising, full curve, poor fit] | 
O=C(CCCC(=O)N(c1ccc(F)cc1)C(C(=O)NC1CCCC1)c1ccc(O)cc1)Nc1ccccn1 (stereo not given) | 17.8 µM [falling, partial curve] | 

Continuation.

Compound | AC50 [1] | AC50 [2]
COc1ccc(NC(=O)c2ccc(S(=O)(=O)N(C)c3ccccc3)cc2)cn1 | 35.5 µM [falling, single point] | 
CCCCOc1ccccc1NC(=O)c1scc2c1OCCO2 |  | 15.8 µM [rising, partial curve, poor fit]
Cc1ccc2[nH]c(=O)c(COC(=O)C3CCCCC3)cc2c1 | 15.8 µM [rising, single point] | 
CC1CC(C)CN(C(=O)CSCC(=O)Nc2nc(-c3cccs3)cs2)C1 (stereo not given) | 18.4 µM [falling, single point] | 
Nc1ccc(C(=O)O)c(O)c1 | 0.00411 µM [rising, full curve, poor fit] | 
NS(=O)(=O)c1ccc(CCNCc2cccnc2)cc1 | 5.62 µM [rising, partial curve, poor fit] | 
O=c1c(Cl)c(N2CCOCC2)cnn1-c1nc2ccccc2[nH]1 | 11.2 µM [falling, partial curve] | 
C=CCOc1c(CNn2cn[nH]c2=S)cccc1OC | 35.5 µM [rising, single point] | 
O/N=C(/c1ccccc1)c1cc2cc(Br)cc(Br)c2o1 | 10 µM [rising, single point] | 
Cc1ccc(/C=C/c2nc3ccccc3[nH]2)o1 | 10 µM [falling, partial curve, poor fit] | 
O=C(CN1C(=O)CCC1=O)Nc1nc(-c2ccc(Cl)s2)cs1 | 1.16 µM [falling, partial curve, poor fit] | 
FC(F)C(F)(F)C(F)(F)C(F)(F)c1cc(-c2ccccc2)n[nH]1 | 4.61 µM [rising, full curve] | 
C[C@H](CO)N1C[C@H](C)[C@@H](CN(C)Cc2ccc(-c3ccccc3)cc2)Oc2c(NS(=O)(=O)c3ccc(F)cc3)cccc2C1=O | 8.2 µM [falling, partial curve, poor fit] | 
COC(=O)c1sccc1NC(=O)COc1ccc(Cl)cc1 | 5.8 µM [falling, partial curve] | 
Cc1cs/c(=N/C(=S)Nc2ccccc2)n1C | 16.4 µM [falling, single point] | 
Cc1ccccc1Oc1cc(NC(=O)CCCn2nc(C)c([N+](=O)[O-])c2C)cc([N+](=O)[O-])c1 | 18.4 µM [falling, single point] | 
Nc1[nH]nc2nc3ccccc3cc12 | 10 µM [falling, partial curve, poor fit] | 
O=C(NCCS(=O)(=O)NCc1ccc(F)cc1)c1ccccc1 | 0.651 µM [rising, full curve, poor fit] | 
CCOc1ccc(NS(=O)(=O)c2ccc3[nH]cc(C(=O)NCC4CCCO4)c(=O)c3c2)cc1 (stereo not given) | 3.98 µM [falling, partial curve, poor fit] | 
O=C(O)c1ccc(NC2=C/C(=N/S(=O)(=O)c3ccccc3)c3ccccc3C2=O)cc1 | 5.62 µM [falling, full curve] | 5.62 µM [rising, full curve, poor fit]
COc1cc(SC)ccc1C(=O)Nc1ccc2c(c1)OCO2 | 35.5 µM [falling, single point] | 

Compound | AC50 [1] | AC50 [2]
CCOC(=O)N1CCN(Cc2nc(N)nc(Nc3ccc(OC)cc3)n2)CC1 | 8.2 µM [rising, partial curve] | 
Cc1ccc(Cn2c(=S)[nH]c3ccc(N4CCOCC4)cc3c2=O)o1 | 0.731 µM [falling, full curve, poor fit] | 
Cc1cccc(Cc2c(C)nc3nc(SCC(=O)NCc4ccco4)nn3c2C)c1 | 17.8 µM [falling, single point] | 
COc1ccc(Br)cc1CNc1ccccc1 | 2.82 µM [rising, full curve, poor fit] | 
O=C(NCCc1ccccc1)C(=O)NCC1CCCO1 (stereo not given) | 6.51 µM [rising, single point] | 
CN(C)S(=O)(=O)c1ccc2nc(NC(=O)c3cccs3)sc2c1 | 29.1 µM [falling, single point] | 
FC(F)(F)c1cc(-c2ccccc2)nc(NCc2cccnc2)n1 | 1.58 µM [falling, partial curve, poor fit] | 
O=C(COC(=O)c1cccc(C(=O)OCC(=O)c2ccc(Br)cc2)n1)c1ccc(Br)cc1 | 29.1 µM [rising, single point] | 
O=C1Nc2ccc(Cl)cc2[C@@](C#CC2CC2)(C(F)(F)F)O1 | 1.41 µM [rising, partial curve, poor fit] | 5.62 µM [falling, partial curve, poor fit]
NC(=O)COC(=O)[C@@H]1CC(O)CN1S(=O)(=O)c1ccc2c(c1)OCCO2 (stereo not given in full) | 0.794 µM [rising, single point] | 
Cc1cccc([C@@H]2[C@@H]3C(=O)N(Cc4ccccc4)C(=O)[C@@H]3[C@]3(CC(C)C)C(=O)N(c4cccc(F)c4)C(=O)N23)c1 | 6.51 µM [falling, partial curve] | 
Cc1cccc2sc(NC(=O)C3c4ccccc4Oc4ccccc43)nc12 | 7.08 µM [falling, partial curve, poor fit] | 
COCC(C)n1c(SCC(=O)NC(=O)NCc2ccccc2)nc2ccccc2c1=O (stereo not given) | 3.26 µM [rising, single point] | 
O=C(N/N=C/c1sc(=O)n(-c2ccccc2)c1Cl)c1ccccc1 | 29.1 µM [falling, single point] | 
CC1CCN(C2=C(NS(=O)(=O)c3ccccc3)C(=O)c3ccccc3C2=O)CC1 | 0.631 µM [rising, full curve, poor fit] | 
CCc1ccc(/C=N\NC(=O)c2ccc(Br)o2)s1 | 25.9 µM [falling, partial curve, poor fit] | 
O=C(N/N=C/c1cccc(C(F)(F)F)c1)c1ccccc1O | 4.47 µM [falling, partial curve, poor fit] | 
CCN(C[C@H]1N[C@@](CC)(C(=O)OC)[C@H]2C(=O)N(Cc3ccccc3)C(=O)[C@@H]12)S(=O)(=O)c1ccc(C(F)(F)F)cc1 | 6.51 µM [falling, single point] | 
COCCCNC(=S)N/N=C/c1cccc(OC)c1O | 0.398 µM [falling, full curve, poor fit] | 
CN(C)/C=C/C(=O)c1ccc(Oc2ccccc2)cc1 | 6.31 µM [falling, single point] | 
O=C(Nc1ccc(Br)cc1)c1cccc(N2C(=O)C3C4CCC(C4)C3C2=O)c1 (stereo not given) | 20.6 µM [falling, partial curve] | 

Structural class, the entries above with an aryl methoxy group.
Compound | AC50 [1] | AC50 [2]
COc1cccc(C(=O)Oc2c(Br)cc(Br)cc2/C=N/NC(=O)c2cc(C)[nH]n2)c1 | 3.98 µM [falling, full curve, poor fit] | 
COc1ccc(N=Cc2c(O)c3ccccc3n2C(C)=O)cc1 | 0.891 µM [falling, partial curve] | 
COc1ccc(-c2nn(-c3ccccc3)cc2/C=N/N2C(=O)CSC2=S)cc1 | 0.517 µM [rising, full curve, poor fit] | 
CCc1nc(SCC(=O)Nc2cc(OC)ccc2OC)c2c(C)c(C)sc2n1 | 7.94 µM [rising, partial curve, poor fit] | 
COc1ccc(CC(=O)Oc2ccccc2C)cc1 | 31.6 µM [rising, single point] | 
COc1cccc(N2C(=O)C(c3ccccc3)=C(c3nc4ccccc4s3)C2NC(C)=O)c1 (stereo not given) | 18.4 µM [falling, single point] | 
CCOC(=O)c1c(NC(=O)C(=O)N/N=C/c2ccc(O)c(OC)c2)sc2c1CCCCC2 | 18.4 µM [rising, single point] | 
COc1ccc(/C=N/Nc2cc(C)nc3ccc(Br)cc23)cc1 | 35.5 µM [falling, single point] | 
COc1ccc(NC(=O)c2ccc(S(=O)(=O)N(C)c3ccccc3)cc2)cn1 | 35.5 µM [falling, single point] | 
C=CCOc1c(CNn2cn[nH]c2=S)cccc1OC | 35.5 µM [rising, single point] | 
COc1cc(SC)ccc1C(=O)Nc1ccc2c(c1)OCO2 | 35.5 µM [falling, single point] | 
CCOC(=O)N1CCN(Cc2nc(N)nc(Nc3ccc(OC)cc3)n2)CC1 | 8.2 µM [rising, partial curve] | 
COc1ccc(Br)cc1CNc1ccccc1 | 2.82 µM [rising, full curve, poor fit] | 
COCCCNC(=S)N/N=C/c1cccc(OC)c1O | 0.398 µM [falling, full curve, poor fit] | 
